Binding data for two molecules are collected here from publication PMC12820563, “FoxP3 forms a head-to-head dimer in vivo and stabilizes its multimerization on adjacent microsatellites”.

No constants are given. Whether binding was seen depends on the method and setting.

Test [1] deals with mouse FoxP2^RBR-forkhead (residues 447–588) (mouse) (UniProt P58463). Kind of test: native gel or EMSA; RBR-FKH protein (0.8 μM) with DNA harbouring a single FKHM (sFKHM, 0.2 μM) in the presence of NFAT (0.4 μM); 20 mM HEPES pH 7.5, 150 mM NaCl, 1.5 mM MgCl2, 2 mM DTT, 10 min at 4°C; 3–12% Bis-Tris native gel, SYBR Gold; both purified. In general terms: In EMSA bound probe runs differently from free probe, usually more slowly.

For test [2] the target is unchanged. As to the kind of experiment: native gel or EMSA; RBR-FKH protein (0.8 μM) with DNA harbouring IR-FKHM (0.2 μM) in the presence of NFAT (0.4 μM); 20 mM HEPES pH 7.5, 150 mM NaCl, 1.5 mM MgCl2, 2 mM DTT, 10 min at 4°C; 3–12% Bis-Tris native gel, SYBR Gold; monomer or dimer on the DNA told by the band pattern; both purified.
Test [3] concerns the target mouse FoxP4^RBR-forkhead (residues 418–557) (mouse) (UniProt Q9DBY0). As to the kind of experiment: native gel or EMSA; RBR-FKH protein (0.8 μM) with DNA harbouring a single FKHM (sFKHM, 0.2 μM) in the presence of NFAT (0.4 μM); 20 mM HEPES pH 7.5, 150 mM NaCl, 1.5 mM MgCl2, 2 mM DTT, 10 min at 4°C; 3–12% Bis-Tris native gel, SYBR Gold; both purified.
For test [4] the target is unchanged. As to the kind of experiment: native gel or EMSA; RBR-FKH protein (0.8 μM) with DNA harbouring IR-FKHM (0.2 μM) in the presence of NFAT (0.4 μM); 20 mM HEPES pH 7.5, 150 mM NaCl, 1.5 mM MgCl2, 2 mM DTT, 10 min at 4°C; 3–12% Bis-Tris native gel, SYBR Gold; monomer or dimer on the DNA told by the band pattern; both purified.

B1: mouse FoxP2^RBR-forkhead (residues 447–588) (domain or fragment, UniProt P58463 447-588)
chain: TTPTAPVTPITQGPSVITPASVPNVGAIRRRHSDKYNIPMSSEIAPNYEFYKNADVRPPFTYATLIRQAIMESSDRQLTLNEIYSWFTRTFAYFRRNAATWKNAVRHNLSLHKCFVRVENVKGAVWTVDEVEYQKRRSQKIT
B1: the binding entry in test [1] and in test [2] was “no binding (tested: 0.8 μM protein with 0.2 μM DNA)” in each case.

B2: mouse FoxP4^RBR-forkhead (residues 418–557) (domain or fragment, UniProt Q9DBY0 418-557)
chain: GLGSASLHSGGPARRRSNDKFCSPISSELAQNHEFYKNADVRPPFTYASLIRQAILETPDRQLTLNEIYNWFTRMFAYFRRNTATWKNAVRHNLSLHKCFVRVENVKGAVWTVDEREYQKRRPPKMTGSPTLVKNMISGL
Take B2: the binding entry in test [3] and in test [4] was “no binding (tested: 0.8 μM protein with 0.2 μM DNA)” in each case.
